Values quoted from earlier work as cited in patent US20150224157A1, “PROCESS FOR THE PREPARATION OF HERBAL EXTRACT OF CASSIA TORA LEAVES FOR TREATING ANXIETY DISORDERS” (priority 2009, published 2015).
Some entries share one result that the patent states for a list of compounds. For at least one compound, name, drawing or mass did not settle the structure. Some ranges recur; such a range may be that of the whole group of compounds.

Tested on: methicillin-resistant Staphylococcus aureus
Conditions: four strains of methicillin-resistant Staphylococcus aureus; cited from earlier work

Compound | minimum inhibitory concentration
COc1cc(O)c2c(O)c(C(C)=O)c(C)cc2c1 [torachrysone] | 2-64 mu g/ml
COc1cc(O)c2c(O)c3c(=O)oc(C)cc3cc2c1 [toralactone] | 2-64 mu g/ml
